Values from PubChem BioAssay AID1259327 (Drosophila RNAi Screening Center, 2017).
Screen: 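Baseline ATP after transmembrane-protein gene knock-down with water vehicle only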. Cell system: Drosophila S2R+ cells. Reagent: long dsRNA against Drosophila genes. Time to read-out: 5 days (water added on day 4, read one day later). Treatment: water added as vehicle, no metal, one day before read-out. Read-out: 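Total ATP measured by luciferase light, scaled to plate mean, duplicates averaged, then z-scored across plates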. Reading the numbers: ATP z-score: higher = more total ATP than typical wells; ATP luminescence: higher = more total ATP. Active means: 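Called active when the ATP z-score exceeds 1.5 or falls below -1.5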. Calls: active = hit: ATP up or down; inactive = no clear ATP change.
The whole screen tested about 3,100 reagents; below is an unselected part. Over the whole deposit, 378 (12%) got an active call. 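Hits include both directions; z-score sign shows ATP rise or fall; raw luminescence values are not plate-normalised.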 Entries without a mark were called inactive. A plus sign joins genes that one reagent is predicted to hit. Reagent sequences are not shown. Not given: the amount of reagent.

predicted target	amplicon	ATP z-score, duplicate mean	ATP luminescence, replicate 1 (RLU)	ATP luminescence, replicate 2 (RLU)
KaiR1D	DRSC15516	-0.262	2.91e5	7.25e5
CG7912	DRSC16343	0.353	5.92e5	7.66e5
Or59b	DRSC04632	-0.419	6.94e5	6.70e5
Eglp2	DRSC04294	0.947	7.82e5	8.84e5
Eglp2	DRSC39691	1.09	5.17e5	5.62e5
Inx3	DRSC14857	0.676	7.47e5	8.03e5
Inx3	DRSC24037	0.659	9.68e5	8.96e5
Cals	DRSC17196	-0.598	6.30e5	6.58e5
Cals	DRSC21661	-1.33	4.81e5	6.44e5
Or59c	DRSC04633	-0.0439	6.83e5	7.59e5
Or59c	DRSC39767	1.15	4.74e5	6.51e5
Or98b	DRSC21751	-0.0408	5.71e5	5.81e5
Irk2	DRSC15569	0.368	7.68e5	7.20e5
Irk2	DRSC39572	0.503	4.87e5	5.13e5
CG4313	DRSC18514	-0.338	6.90e5	6.52e5
CG4313	DRSC24627	0.175	9.33e5	7.63e5
Ac78C	DRSC11602	-0.128	9.16e5	8.44e5
Ac78C	DRSC11619	0.816	8.55e5	8.05e5
CG34030	DRSC08866	-1.27	5.80e5	6.30e5
Ctr1C	DRSC15089	-1.05	7.07e5	7.53e5
Ctr1C	DRSC39456	0.771	5.47e5	4.63e5
Tsp42Ea	DRSC04982	-0.92	4.89e5	5.84e5
Tsp42Ea	DRSC06792	0.64	7.09e5	6.46e5
Ir10a	DRSC18891	-1.43	5.41e5	4.39e5
Ir10a	DRSC19478	-0.123	7.73e5	6.82e5
Ir10a	DRSC19479	0.495	5.23e5	7.36e5
bib + lncRNA:CR13130	DRSC24888	0.0563	8.84e5	8.30e5
PIG-C	DRSC08241	-0.789	8.39e5	7.48e5
tank	DRSC00461	-0.0505	7.30e5	7.11e5
Tango9	DRSC14173	-0.27	6.96e5	6.60e5
CG5880	DRSC15906	0.264	7.71e5	6.96e5
CG5880	DRSC39828	-0.415	4.69e5	4.29e5
CG34109	DRSC02225	-0.454	7.01e5	6.55e5
CG34109	DRSC26977	0.243	1.04e6	8.71e5
CG34109	DRSC30104	-1.02	5.19e5	4.67e5
CG1909	DRSC17150	-0.284	7.10e5	6.44e5
CG1909	DRSC39638	-2.01 (active)	3.50e5	3.06e5
CG8534	DRSC16439	-0.3	3.18e5	6.47e5
CG14744	DRSC06480	0.751	5.93e5	7.82e5
CG9254	DRSC01969	0.835	7.86e5	8.43e5
ppk15	DRSC14733	-0.607	5.41e5	6.12e5
ppk15	DRSC27947	2.69 (active)	6.73e5	8.13e5
CG31103	DRSC22324	0.241	8.46e5	9.15e5
PIG-T	DRSC17774	0.941	5.38e5	6.58e5
PIG-T	DRSC39821	-0.123	4.75e5	4.66e5
CG12290	DRSC14497	0.174	7.47e5	7.01e5
CG12290	DRSC28328	0.379	9.52e5	7.92e5
Rh50	DRSC08692	-0.0286	6.82e5	7.76e5
CG3164	DRSC00572	0.973	8.32e5	7.81e5
Ranbp16	DRSC20160	0.868	5.59e5	8.41e5
Dh44-R2	DRSC06141	-0.276	5.42e5	6.47e5
Tnpo-SR	DRSC00546	1.43	5.74e5	5.84e5
Tnpo-SR	DRSC38005	0.0913	6.17e5	5.57e5
Cad74A	DRSC10636	0.333	9.95e5	8.86e5
Shab	DRSC08013	-0.423	6.68e5	7.27e5
Shab	DRSC08699	0.213	7.09e5	8.00e5
ics	DRSC29655	-0.0342	8.43e5	7.96e5
CG10505	DRSC04075	-0.234	7.38e5	6.65e5
CG10505	DRSC39815	1.2	4.51e5	6.83e5
pasi2	DRSC16380	1.18	3.11e5	9.97e5
pasi2	DRSC39713	-1.32	3.36e5	4.16e5
GABA-B-R1	DRSC22038	0.96	7.76e5	5.44e5
GABA-B-R1	DRSC39785	-0.94	4.02e5	4.25e5
Cftr	DRSC15872	0.451	7.93e5	7.13e5
Cftr	DRSC24655	1.03	1.03e6	9.28e5
Grl36a	DRSC21748	-0.336	5.31e5	5.72e5
CG30344	DRSC26387	-1.63 (active)	7.67e5	8.89e5
Start1	DRSC04384	0.182	7.49e5	7.51e5
Start1	DRSC28343	-1.46	7.10e5	5.89e5

A stretch of the results above, for reference:
predicted target	amplicon	ATP z-score, duplicate mean	ATP luminescence, replicate 1 (RLU)	ATP luminescence, replicate 2 (RLU)
CG12290	DRSC28328	0.379	9.52e5	7.92e5
Rh50	DRSC08692	-0.0286	6.82e5	7.76e5
CG3164	DRSC00572	0.973	8.32e5	7.81e5
Ranbp16	DRSC20160	0.868	5.59e5	8.41e5
